PMC5705681

B1: phosphoadenosine phosphosulfate reductase (MSMEG_1245), fragment 42-232 (domain or fragment, UniProt A0QRU8 42-232)
chain: LPETYEYLDRLETALGKPIARLNARKGFDHWFEVYRGTLPSPQMRWCTKKMKIEPLEEWIGDDYAVSYVAIRADEAGRKGYVSTKPNIRTVLPFVEGGIDHDGVLRILDEAGIGLPKYYEWRTRSGCYFCFYQRKAEWVGLAEKHPELLHRAIAIEAKVRQDAGADGDASFGEYAMKGRQYTWSGGESLPE
B2: universal stress protein (MSMEG_3811), fragment 1-101 (domain or fragment, UniProt A0QYW6 1-101)
chain: MSAYQTVVVGTDGSDSSLRAVDRAGQIAAASNAKLIIATAYFPQSEDSRAADVLKDEGYKMAGNAPIYAILREANDRAKAAGATDIEERPVVGAPVDALVE
B3: Putative ribosylglycohydrolase (MSMEG_1272), fragment 1-132 (domain or fragment, UniProt A0QRX4 1-132)
chain: MGSSRIELTAAQRDRAVGVLLGAAAGDALGAGYELNRPLAPDHPVGMIGGGLGPFAPGEWTDDTSMAIAIAEIASTGEDLRKEKPLDYLVERWEWWSRTAPDVGVQTRTVLSETAARGLCAQTARAVSEELH
B4: conserved hypothetical protein/sugar transporter (MSMEG_2001), fragment 142-219 (domain or fragment, UniProt A0QTX7 142-219)
chain: MLGEIFPNSYRGPALAVAVAVQWIANFVVTVTFPPFAALSLPLSYCFYSACALLSALFVLRFVRETKGRELEEMDDIA
B5: 50 S ribosomal protein L450S ribosomal protein L23 (MSMEG_1438), first 85 residues (domain or fragment, UniProt A0QSD3 1-85)
chain: MATITDPRDIILAPVISEKSYGLIEDNVYTFVVHPDSNKTQIKIAIEKIFDVKVDSVNTANRQGKRKRTRTGFGKRKSTKRAIVK
B6: sugar ABC transporter substrate-binding protein (PBP_Type 2 superfamily) (MSMEG_5574), fragment 64-181 (domain or fragment, UniProt A0R3S1 64-181)
chain: LRFVTLSENQARAKITASTAMGGGEFDVVMISNYETPQWAENGWLVDLSDYARNTPGYDEDDFIPSLKDSLSYQGDMYSVPFYGESSFLMYRKDLFEQAGIEMPRTPTWQQVADAAAE
B7: TetR family transcriptional regulator (MSMEG_2071), fragment 25-182 (domain or fragment, UniProt A0QU44 25-182)
chain: FAERGFHGTTLADITSAAGKSPAVFYRYFTDKEDLLAALAESFLHDVVEPSGLNLHLPDSPDDAEFFTSVVTGYWNMFKQNIGIMIAVAQLAATQQRFAEVQNSFRRFGIDIVVASVRRAQEQGHAVGLVPEHIGAAIALLFENFTTVFVGSSGLGVE
B8: Cyclododecanone Monoxygenase (MSMEG_5625), fragment 243-375 (domain or fragment, UniProt A0R3X1 243-375)
chain: LHDKKVALIGTGATGVQLVPYLGRDAQHLYVFQRTPSTVDERNNTPTDPEWVKTLQPGWQKERQRNFHAWTFEGMALGQPDLVCDFWTELGRNTAARVMALEDPASMTPEQFMAIREEEDYKVMERLRRRVDQ

Key:
Experiment in all cases: two-hybrid; Giles ORFs as baits in pGBGT7g (yeast AH109) against a random genomic fragment prey library of M. smegmatis mc2155 in pGADT7g (yeast Y187); positives retested by array-based Y2H with freshly prepared prey clones; background suppressed by 3-AT
[1] = target: Mycobacteriophage Giles gp47, phage repressor (putative repressor) (mycobacteriophage Giles)
[2] = target: Mycobacteriophage Giles gp29, phage integrase (mycobacteriophage Giles)
[3] = target: Mycobacteriophage Giles gp31, endolysin (LysinA) (mycobacteriophage Giles)

Binder | binding [1] | further results
B1 | binds | 
B2 | binds | 
B3 | binds | 
B4 |  | binding [2]: binds
B5 |  | binding [2]: binds
B6 |  | binding [3]: binds
B7 |  | binding [3]: binds
B8 | binds | 

Results are given in words; binding and its absence hold for the method and conditions named. Binding calls can cover weak binding; strength is not graded here.
